In article PMC10087458 (Chemical Biology & Drug Design, 2022):

Test system: Mycobacterium bovis BCG (ATCC35734)
Format: cell-based
Conditions: ratio between GIC50 (RAW 264.7) and MIC90 BCG

Structure (SMILES)	SI GIC50/MIC90 M. bovis BCG
CS(=O)(=O)OCCOCCOCCOCCOCC#Cc1nc(N)c2ncn([C@@H]3O[C@H](CO)[C@@H](O)[C@H]3O)c2n1 [10b]	1.0
CS(=O)(=O)OCCOCCOCCOCCOCCOCC#Cc1nc(N)c2ncn([C@@H]3O[C@H](CO)[C@@H](O)[C@H]3O)c2n1 [10c]	1.0
CC1(C)O[C@@H]2[C@H](O1)[C@@H](CO)O[C@H]2n1cnc2c(N)nc(C#CCOCCOCCOCCOCCOS(C)(=O)=O)nc21 [11b]	0.1
CC1(C)O[C@@H]2[C@H](O1)[C@@H](CO)O[C@H]2n1cnc2c(N)nc(C#CCOCCOCCOCCOCCOCCOS(C)(=O)=O)nc21 [11c]	0.3
CC1(C)O[C@@H]2[C@H](O1)[C@@H](COS(N)(=O)=O)O[C@H]2n1cnc2c(N)nc(C#CCOCCOCCOCCOCCOCCOS(C)(=O)=O)nc21 [12c]	0.1
NNC(=O)c1ccncc1 [Isoniazid, isoniazid, reference compound]	1020.4
Nc1nc(I)nc2c1ncn2[C@@H]1O[C@H](CO)[C@@H](O)[C@H]1O [compound 9, 2‐iodoadenosine, reference compound]	16
